From paper PMC9905541
No constants are given. Whether binding was seen depends on the method and setting. In cells and extracts the contact can be indirect. Some binding calls cover weakened binding; strength is not graded here.

Amino acid sequences for entries named in this document (tags omitted).
UniProt Q86WV6: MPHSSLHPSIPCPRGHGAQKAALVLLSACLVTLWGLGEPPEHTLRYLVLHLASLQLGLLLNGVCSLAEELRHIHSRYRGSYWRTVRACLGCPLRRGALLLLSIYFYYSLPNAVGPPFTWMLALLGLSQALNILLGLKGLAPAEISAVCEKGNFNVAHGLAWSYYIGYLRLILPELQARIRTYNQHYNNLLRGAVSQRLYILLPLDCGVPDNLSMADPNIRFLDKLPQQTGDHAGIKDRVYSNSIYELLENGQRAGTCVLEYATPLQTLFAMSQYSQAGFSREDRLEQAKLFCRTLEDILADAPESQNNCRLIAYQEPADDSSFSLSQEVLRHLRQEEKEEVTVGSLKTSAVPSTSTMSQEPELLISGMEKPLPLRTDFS
UniProt P84077: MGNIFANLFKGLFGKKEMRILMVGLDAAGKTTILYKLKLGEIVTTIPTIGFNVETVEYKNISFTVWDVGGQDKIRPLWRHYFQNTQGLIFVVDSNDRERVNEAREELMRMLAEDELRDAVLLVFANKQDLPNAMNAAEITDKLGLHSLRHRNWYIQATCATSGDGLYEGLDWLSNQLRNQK
UniProt P84078: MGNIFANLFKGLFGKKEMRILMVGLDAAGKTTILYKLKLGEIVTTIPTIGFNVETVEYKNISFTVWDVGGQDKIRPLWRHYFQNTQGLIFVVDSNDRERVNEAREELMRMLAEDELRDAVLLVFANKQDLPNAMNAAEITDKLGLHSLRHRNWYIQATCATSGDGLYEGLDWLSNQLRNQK

Columns and labels:
[1] = target: STING-Myc (stimulator of interferon gene) (UniProt Q86WV6); experiment: co-IP; HEK293T cells co-transfected with tagged STING and ARF1-Flag; in Fig. 7f followed by myristic acid treatment; IP lysis buffer 50 mM Tris-HCl pH 7.4, 50 mM EDTA, 150 mM NaCl, 1% NP-40; indicated antibodies with Protein A/G PLUS-Agarose overnight at 4 °C; immunoblot
[2] = target: STING-HA (stimulator of interferon gene) (UniProt Q86WV6); experiment: as above
[3] = target: T1, STING, endogenous in mouse peritoneal macrophages (mouse (endogenous in primary peritoneal macrophages)) (UniProt Q3TBT3); experiment: co-IP; endogenous proteins in HSV-1-infected mouse peritoneal macrophages; IP lysis buffer 50 mM Tris-HCl pH 7.4, 50 mM EDTA, 150 mM NaCl, 1% NP-40; indicated antibodies with Protein A/G PLUS-Agarose overnight at 4 °C; immunoblot
T1 sequence: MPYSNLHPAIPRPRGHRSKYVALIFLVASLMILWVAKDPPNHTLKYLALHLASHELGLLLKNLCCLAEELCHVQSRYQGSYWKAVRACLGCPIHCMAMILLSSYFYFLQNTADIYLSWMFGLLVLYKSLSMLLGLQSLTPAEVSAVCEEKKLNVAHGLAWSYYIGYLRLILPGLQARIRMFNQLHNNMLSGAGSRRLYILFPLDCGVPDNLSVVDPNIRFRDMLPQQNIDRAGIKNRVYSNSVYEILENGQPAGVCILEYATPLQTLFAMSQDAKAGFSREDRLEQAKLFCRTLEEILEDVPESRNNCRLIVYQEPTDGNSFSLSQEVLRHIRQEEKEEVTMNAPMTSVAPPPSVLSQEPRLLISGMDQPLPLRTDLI

Row | Substance | binding [1] | binding [2] | binding [3]
1 | ARF1-Flag (ADP-ribosylation factor 1, wild type) (from UniProt P84077 1-181) | binds | binds | 
2 | ARF1, endogenous in mouse peritoneal macrophages (from UniProt P84078 1-181) |  |  | binds
